{
  "sequences": {"note": "By UniProt entry, the sequences of proteins in these tests, tags left out.", "MYH9, P35579, UniProt P35579, whole entry": "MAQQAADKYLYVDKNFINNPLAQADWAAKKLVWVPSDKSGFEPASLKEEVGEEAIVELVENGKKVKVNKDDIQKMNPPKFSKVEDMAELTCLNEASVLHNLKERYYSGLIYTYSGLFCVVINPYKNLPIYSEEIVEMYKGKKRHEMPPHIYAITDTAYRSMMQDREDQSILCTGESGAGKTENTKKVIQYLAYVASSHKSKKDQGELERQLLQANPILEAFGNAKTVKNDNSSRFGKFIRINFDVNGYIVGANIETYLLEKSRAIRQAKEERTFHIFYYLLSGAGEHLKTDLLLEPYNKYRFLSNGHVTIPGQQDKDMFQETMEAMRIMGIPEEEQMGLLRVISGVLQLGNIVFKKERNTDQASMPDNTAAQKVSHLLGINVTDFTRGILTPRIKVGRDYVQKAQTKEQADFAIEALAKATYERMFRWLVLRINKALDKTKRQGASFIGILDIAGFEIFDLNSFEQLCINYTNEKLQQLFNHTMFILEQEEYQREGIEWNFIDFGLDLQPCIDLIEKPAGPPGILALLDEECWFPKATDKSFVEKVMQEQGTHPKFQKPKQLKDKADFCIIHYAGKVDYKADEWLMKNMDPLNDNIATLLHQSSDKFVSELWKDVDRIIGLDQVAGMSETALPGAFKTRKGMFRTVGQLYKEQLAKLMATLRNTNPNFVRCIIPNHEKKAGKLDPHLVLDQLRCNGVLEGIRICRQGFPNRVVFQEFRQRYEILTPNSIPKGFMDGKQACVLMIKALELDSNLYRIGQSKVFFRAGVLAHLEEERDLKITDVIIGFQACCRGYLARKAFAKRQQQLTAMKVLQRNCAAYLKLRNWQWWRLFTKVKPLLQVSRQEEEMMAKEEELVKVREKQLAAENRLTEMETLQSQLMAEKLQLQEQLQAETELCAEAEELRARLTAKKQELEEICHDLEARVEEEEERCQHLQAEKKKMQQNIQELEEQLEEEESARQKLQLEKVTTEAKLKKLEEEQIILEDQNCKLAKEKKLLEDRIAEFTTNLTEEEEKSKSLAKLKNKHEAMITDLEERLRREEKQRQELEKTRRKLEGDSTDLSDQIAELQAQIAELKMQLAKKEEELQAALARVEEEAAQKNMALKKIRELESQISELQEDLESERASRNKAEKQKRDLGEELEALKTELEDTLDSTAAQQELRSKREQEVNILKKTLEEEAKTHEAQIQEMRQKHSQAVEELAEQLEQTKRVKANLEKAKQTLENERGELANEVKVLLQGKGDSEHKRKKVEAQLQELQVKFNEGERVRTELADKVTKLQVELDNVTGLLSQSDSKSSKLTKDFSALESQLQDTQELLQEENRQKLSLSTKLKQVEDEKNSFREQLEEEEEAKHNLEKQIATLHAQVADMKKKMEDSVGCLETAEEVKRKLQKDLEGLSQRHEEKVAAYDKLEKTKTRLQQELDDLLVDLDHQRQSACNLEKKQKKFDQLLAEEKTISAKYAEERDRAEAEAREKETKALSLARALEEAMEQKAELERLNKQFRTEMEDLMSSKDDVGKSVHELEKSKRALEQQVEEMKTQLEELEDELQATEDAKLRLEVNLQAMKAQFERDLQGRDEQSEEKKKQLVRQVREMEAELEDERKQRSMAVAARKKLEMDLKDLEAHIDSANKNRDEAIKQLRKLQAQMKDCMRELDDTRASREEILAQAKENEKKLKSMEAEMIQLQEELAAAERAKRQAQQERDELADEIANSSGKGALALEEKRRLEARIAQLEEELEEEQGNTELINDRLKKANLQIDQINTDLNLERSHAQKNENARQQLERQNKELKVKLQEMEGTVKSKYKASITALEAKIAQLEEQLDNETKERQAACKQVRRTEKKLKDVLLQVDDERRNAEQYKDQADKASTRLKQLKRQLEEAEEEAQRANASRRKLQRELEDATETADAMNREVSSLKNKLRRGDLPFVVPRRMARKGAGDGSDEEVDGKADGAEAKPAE", "GLYATL1B, A0A0U1RQE8, UniProt A0A0U1RQE8, whole entry": "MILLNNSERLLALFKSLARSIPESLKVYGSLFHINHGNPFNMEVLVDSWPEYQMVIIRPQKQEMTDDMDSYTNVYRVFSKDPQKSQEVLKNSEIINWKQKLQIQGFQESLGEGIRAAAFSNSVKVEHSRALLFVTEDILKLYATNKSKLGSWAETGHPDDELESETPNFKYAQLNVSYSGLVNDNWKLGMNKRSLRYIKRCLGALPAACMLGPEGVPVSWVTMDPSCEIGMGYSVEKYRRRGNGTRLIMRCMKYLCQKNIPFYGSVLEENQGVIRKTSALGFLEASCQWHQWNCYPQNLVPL", "NDUFA6, P56556, UniProt P56556, whole entry": "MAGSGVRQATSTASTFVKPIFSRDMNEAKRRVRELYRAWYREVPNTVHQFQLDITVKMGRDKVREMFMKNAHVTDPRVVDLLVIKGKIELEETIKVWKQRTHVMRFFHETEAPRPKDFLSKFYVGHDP", "SYCP2, Q9BX26, UniProt Q9BX26, whole entry": "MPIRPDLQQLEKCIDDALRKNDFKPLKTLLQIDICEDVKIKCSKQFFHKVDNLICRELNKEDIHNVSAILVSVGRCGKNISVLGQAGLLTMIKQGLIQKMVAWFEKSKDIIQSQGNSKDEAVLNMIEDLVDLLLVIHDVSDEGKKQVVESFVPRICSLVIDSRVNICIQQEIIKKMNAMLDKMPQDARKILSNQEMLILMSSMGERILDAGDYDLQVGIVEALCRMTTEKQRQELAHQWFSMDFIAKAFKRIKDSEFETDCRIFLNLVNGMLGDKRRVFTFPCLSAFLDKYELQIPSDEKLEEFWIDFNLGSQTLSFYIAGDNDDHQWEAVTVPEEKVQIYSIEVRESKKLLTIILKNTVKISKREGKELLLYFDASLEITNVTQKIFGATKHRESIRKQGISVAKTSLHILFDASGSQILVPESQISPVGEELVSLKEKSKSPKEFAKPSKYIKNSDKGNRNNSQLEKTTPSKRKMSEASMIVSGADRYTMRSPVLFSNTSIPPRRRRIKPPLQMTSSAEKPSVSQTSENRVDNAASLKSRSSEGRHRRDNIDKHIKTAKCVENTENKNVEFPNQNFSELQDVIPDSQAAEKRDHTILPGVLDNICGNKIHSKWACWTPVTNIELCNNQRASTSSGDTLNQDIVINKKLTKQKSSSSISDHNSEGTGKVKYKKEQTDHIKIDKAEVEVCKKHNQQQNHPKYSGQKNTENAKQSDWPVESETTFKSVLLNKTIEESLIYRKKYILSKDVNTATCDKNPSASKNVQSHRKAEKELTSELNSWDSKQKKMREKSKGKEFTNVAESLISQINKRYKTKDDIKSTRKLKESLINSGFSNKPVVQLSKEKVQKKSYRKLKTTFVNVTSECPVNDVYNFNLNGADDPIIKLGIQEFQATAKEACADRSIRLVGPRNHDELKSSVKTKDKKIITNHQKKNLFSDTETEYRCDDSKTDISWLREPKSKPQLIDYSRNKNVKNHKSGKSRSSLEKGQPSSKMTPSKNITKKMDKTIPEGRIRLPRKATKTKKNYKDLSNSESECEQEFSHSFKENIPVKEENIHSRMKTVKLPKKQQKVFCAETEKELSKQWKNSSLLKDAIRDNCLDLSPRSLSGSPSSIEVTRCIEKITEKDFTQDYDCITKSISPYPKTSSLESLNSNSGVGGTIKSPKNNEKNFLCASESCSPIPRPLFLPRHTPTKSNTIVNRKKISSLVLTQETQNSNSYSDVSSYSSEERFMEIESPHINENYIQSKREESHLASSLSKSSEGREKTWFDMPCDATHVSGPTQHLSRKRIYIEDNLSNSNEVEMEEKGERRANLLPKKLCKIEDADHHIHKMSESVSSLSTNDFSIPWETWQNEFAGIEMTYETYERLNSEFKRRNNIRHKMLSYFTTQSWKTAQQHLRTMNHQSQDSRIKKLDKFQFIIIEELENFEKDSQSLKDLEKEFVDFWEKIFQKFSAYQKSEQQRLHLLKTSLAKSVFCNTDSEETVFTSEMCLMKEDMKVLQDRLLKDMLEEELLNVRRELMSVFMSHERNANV", "RBM25, P49756, UniProt P49756, whole entry": "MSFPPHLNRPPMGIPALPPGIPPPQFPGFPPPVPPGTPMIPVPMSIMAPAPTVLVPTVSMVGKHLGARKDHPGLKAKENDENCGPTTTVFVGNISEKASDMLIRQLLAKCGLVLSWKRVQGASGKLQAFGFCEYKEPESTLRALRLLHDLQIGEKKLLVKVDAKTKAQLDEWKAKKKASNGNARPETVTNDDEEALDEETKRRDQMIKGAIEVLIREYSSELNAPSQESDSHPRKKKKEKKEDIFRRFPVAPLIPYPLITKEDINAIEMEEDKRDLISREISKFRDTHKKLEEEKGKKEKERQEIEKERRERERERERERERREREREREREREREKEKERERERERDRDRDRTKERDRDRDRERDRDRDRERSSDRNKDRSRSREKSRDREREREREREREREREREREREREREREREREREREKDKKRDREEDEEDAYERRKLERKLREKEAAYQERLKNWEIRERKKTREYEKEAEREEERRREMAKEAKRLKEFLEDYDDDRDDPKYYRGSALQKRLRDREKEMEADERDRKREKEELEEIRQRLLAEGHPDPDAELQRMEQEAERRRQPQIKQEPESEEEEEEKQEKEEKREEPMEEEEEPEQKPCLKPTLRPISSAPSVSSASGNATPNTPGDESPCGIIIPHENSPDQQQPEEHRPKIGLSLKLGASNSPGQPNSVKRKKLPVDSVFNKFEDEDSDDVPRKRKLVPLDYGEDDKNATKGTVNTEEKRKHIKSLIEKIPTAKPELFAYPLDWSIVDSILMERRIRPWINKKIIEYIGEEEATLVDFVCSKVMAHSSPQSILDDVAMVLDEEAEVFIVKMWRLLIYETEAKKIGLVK", "TUBG1, P23258, UniProt P23258, whole entry": "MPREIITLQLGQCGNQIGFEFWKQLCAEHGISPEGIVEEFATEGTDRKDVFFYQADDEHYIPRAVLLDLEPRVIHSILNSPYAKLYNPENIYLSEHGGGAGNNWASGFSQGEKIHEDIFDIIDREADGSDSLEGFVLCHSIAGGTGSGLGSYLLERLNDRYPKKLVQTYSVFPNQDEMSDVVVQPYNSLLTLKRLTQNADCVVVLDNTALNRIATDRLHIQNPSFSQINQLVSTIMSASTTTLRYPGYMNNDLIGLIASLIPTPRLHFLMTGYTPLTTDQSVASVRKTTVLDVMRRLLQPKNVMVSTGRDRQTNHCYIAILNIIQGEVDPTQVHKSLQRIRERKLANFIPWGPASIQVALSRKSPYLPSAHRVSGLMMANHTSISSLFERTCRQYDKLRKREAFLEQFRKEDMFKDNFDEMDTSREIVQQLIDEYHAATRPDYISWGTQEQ", "INTS2, Q9H0H0, UniProt Q9H0H0, whole entry": "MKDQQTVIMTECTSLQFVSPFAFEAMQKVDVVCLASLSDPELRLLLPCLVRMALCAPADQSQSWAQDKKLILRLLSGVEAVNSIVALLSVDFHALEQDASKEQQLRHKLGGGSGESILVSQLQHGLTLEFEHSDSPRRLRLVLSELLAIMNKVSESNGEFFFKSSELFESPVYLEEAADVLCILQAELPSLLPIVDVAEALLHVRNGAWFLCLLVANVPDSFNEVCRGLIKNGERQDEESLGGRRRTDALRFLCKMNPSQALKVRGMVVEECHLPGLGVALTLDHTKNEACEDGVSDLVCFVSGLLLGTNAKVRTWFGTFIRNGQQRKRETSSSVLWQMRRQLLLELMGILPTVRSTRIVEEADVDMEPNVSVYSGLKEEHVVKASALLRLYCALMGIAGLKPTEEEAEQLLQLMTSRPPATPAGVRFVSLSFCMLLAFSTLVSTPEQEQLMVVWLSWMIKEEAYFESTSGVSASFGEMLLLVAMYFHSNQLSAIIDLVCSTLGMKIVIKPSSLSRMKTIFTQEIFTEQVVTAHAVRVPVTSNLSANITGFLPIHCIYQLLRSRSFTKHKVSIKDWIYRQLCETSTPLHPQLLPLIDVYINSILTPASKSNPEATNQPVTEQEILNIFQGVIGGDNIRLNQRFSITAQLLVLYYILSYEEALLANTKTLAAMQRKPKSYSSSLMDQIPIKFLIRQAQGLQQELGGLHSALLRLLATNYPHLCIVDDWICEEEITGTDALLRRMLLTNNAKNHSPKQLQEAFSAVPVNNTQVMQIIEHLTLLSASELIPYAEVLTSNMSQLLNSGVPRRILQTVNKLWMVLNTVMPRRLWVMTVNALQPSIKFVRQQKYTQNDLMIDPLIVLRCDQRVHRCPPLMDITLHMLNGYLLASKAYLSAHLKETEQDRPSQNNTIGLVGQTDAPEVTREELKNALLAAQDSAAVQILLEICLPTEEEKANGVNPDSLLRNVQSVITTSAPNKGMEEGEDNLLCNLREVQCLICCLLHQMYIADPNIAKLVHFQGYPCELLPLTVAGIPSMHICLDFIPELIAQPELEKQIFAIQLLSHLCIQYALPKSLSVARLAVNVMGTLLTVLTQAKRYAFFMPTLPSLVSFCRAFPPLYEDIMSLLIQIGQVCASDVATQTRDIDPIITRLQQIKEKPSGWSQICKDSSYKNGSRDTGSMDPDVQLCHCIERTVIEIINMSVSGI", "UBE2I, P63279, UniProt P63279, whole entry": "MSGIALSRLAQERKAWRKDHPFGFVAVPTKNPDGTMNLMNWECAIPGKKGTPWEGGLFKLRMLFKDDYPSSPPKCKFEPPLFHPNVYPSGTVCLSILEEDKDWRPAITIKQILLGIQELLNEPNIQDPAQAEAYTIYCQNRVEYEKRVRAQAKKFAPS"},
  "source": "the supplement of paper PMC10032668",
  "experiment_in_all_cases": "PRISMA enrichment of interactor (LFQ) in peptide spot vs all other peptide spots (log2 fold change); higher = stronger / more specific binding of the interactor to the peptide",
  "key": {"ITCH, Q96J02": {"molecular_target": "ITCH, Q96J02", "description": "(§1)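 PRISMA: 15-aa overlapping tiles (offset 8 aa) of 60 microproteins, plus SOS1/GLUT1 control peptides, were spot-synthesized on cellulose membranes in triplicate. Membranes were incubated with benzonase-treated HEK293T lysate, and bound proteins were identified by LC-MS/MS with LFQ. Enrichment is the log2 fold change of each protein in one spot versus all other spots. Only interactors passing the significance cutoff are listed.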"}, "SHROOM3, Q8TF72": {"molecular_target": "SHROOM3, Q8TF72", "description": "as §1"}, "PDCL3, Q9H2J4": {"molecular_target": "PDCL3, Q9H2J4", "description": "as §1"}, "PHF8, Q9UPP1": {"molecular_target": "PHF8, Q9UPP1", "description": "as §1"}, "NAP1L1, P55209": {"molecular_target": "NAP1L1, P55209", "description": "as §1"}, "PELP1, Q8IZL8": {"molecular_target": "PELP1, Q8IZL8", "description": "as §1"}, "TIMM23B, Q5SRD1": {"molecular_target": "TIMM23B, Q5SRD1", "description": "as §1"}, "LSG1, Q9H089": {"molecular_target": "LSG1, Q9H089", "description": "as §1"}, "MYH9, P35579": {"molecular_target": "MYH9, P35579", "description": "as §1"}, "UBA1, P22314": {"molecular_target": "UBA1, P22314", "description": "as §1"}, "MEPCE, Q7L2J0": {"molecular_target": "MEPCE, Q7L2J0", "description": "as §1"}, "NOL6, Q9H6R4": {"molecular_target": "NOL6, Q9H6R4", "description": "as §1"}, "SLC27A4, Q6P1M0": {"molecular_target": "SLC27A4, Q6P1M0", "description": "as §1"}, "TAB1, Q15750": {"molecular_target": "TAB1, Q15750", "description": "as §1"}, "ZNF346, Q9UL40": {"molecular_target": "ZNF346, Q9UL40", "description": "as §1"}, "RAB21, Q9UL25": {"molecular_target": "RAB21, Q9UL25", "description": "as §1"}, "PHF3, Q92576": {"molecular_target": "PHF3, Q92576", "description": "as §1"}, "RBMS1, P29558": {"molecular_target": "RBMS1, P29558", "description": "as §1"}, "SOAT1, P35610": {"molecular_target": "SOAT1, P35610", "description": "as §1"}, "SRI, P30626": {"molecular_target": "SRI, P30626", "description": "as §1"}, "GLYATL1B, A0A0U1RQE8": {"molecular_target": "GLYATL1B, A0A0U1RQE8", "description": "as §1"}, "HMGA2, P52926": {"molecular_target": "HMGA2, P52926", "description": "as §1"}, "TACO1, Q9BSH4": {"molecular_target": "TACO1, Q9BSH4", "description": "as §1"}, "NDUFA6, P56556": {"molecular_target": "NDUFA6, P56556", "description": "as §1"}, "NDUFB9, Q9Y6M9": {"molecular_target": "NDUFB9, Q9Y6M9", "description": "as §1"}, "PHAX, Q9H814": {"molecular_target": "PHAX, Q9H814", "description": "as §1"}, "SDE2, Q6IQ49": {"molecular_target": "SDE2, Q6IQ49", "description": "as §1"}, "SYCP2, Q9BX26": {"molecular_target": "SYCP2, Q9BX26", "description": "as §1"}, "HSPH1, Q92598": {"molecular_target": "HSPH1, Q92598", "description": "as §1"}, "LIMD2, Q9BT23": {"molecular_target": "LIMD2, Q9BT23", "description": "as §1"}, "RBM25, P49756": {"molecular_target": "RBM25, P49756", "description": "as §1"}, "TUBG1, P23258": {"molecular_target": "TUBG1, P23258", "description": "as §1"}, "STAT1, P42224": {"molecular_target": "STAT1, P42224", "description": "as §1"}, "GPC1, P35052": {"molecular_target": "GPC1, P35052", "description": "as §1"}, "INTS2, Q9H0H0": {"molecular_target": "INTS2, Q9H0H0", "description": "as §1"}, "ISYNA1, Q9NPH2": {"molecular_target": "ISYNA1, Q9NPH2", "description": "as §1"}, "MTCH2, Q9Y6C9": {"molecular_target": "MTCH2, Q9Y6C9", "description": "as §1"}, "TRMT112, Q9UI30": {"molecular_target": "TRMT112, Q9UI30", "description": "as §1"}, "UBE2I, P63279": {"molecular_target": "UBE2I, P63279", "description": "as §1"}, "UQCRQ, O14949": {"molecular_target": "UQCRQ, O14949", "description": "as §1"}},
  "note": "The other results are listed elsewhere or left out. The list holds hits alone, and they repeat only in part.",
  "data": [
    {"binder": "SDVFFKGFKWGFAAF", "note": "[NDUFB3]", "values": [
      {"measurement": "PRISMA enrichment of interactor (log2)", "setting": "ITCH, Q96J02", "result": 5.63},
      {"measurement": "PRISMA enrichment of interactor (log2)", "setting": "SHROOM3, Q8TF72", "result": 8.76}
    ]},
    {"binder": "MILPALKLLLFLKYV", "note": "[HAND2-AS1]", "values": [
      {"measurement": "PRISMA enrichment of interactor (log2)", "setting": "PDCL3, Q9H2J4", "result": 8.42},
      {"measurement": "PRISMA enrichment of interactor (log2)", "setting": "PHF8, Q9UPP1", "result": 6.81}
    ]},
    {"binder": "LRWKKRAVLPNHRLS", "note": "[RP1-206D15.6]", "values": [
      {"measurement": "PRISMA enrichment of interactor (log2)", "setting": "NAP1L1, P55209", "result": 6.23}
    ]},
    {"binder": "FSPSRAFRLHFCNIL", "note": "[RP3-332B22.1]", "values": [
      {"measurement": "PRISMA enrichment of interactor (log2)", "setting": "PELP1, Q8IZL8", "result": 4.57},
      {"measurement": "PRISMA enrichment of interactor (log2)", "setting": "TIMM23B, Q5SRD1", "result": 6.13}
    ]},
    {"binder": "RREAGAAARRGVRRW", "note": "[PARL]", "values": [
      {"measurement": "PRISMA enrichment of interactor (log2)", "setting": "LSG1, Q9H089", "result": 4.83},
      {"measurement": "PRISMA enrichment of interactor (log2)", "setting": "MYH9, P35579", "result": 6.27},
      {"measurement": "PRISMA enrichment of interactor (log2)", "setting": "UBA1, P22314", "result": 7.55}
    ]},
    {"binder": "AIGWRLFLLLWHPAL", "values": [
      {"measurement": "PRISMA enrichment of interactor (log2)", "setting": "MEPCE, Q7L2J0", "result": 5.9},
      {"measurement": "PRISMA enrichment of interactor (log2)", "setting": "NOL6, Q9H6R4", "result": 5.83},
      {"measurement": "PRISMA enrichment of interactor (log2)", "setting": "SLC27A4, Q6P1M0", "result": 5.62},
      {"measurement": "PRISMA enrichment of interactor (log2)", "setting": "TAB1, Q15750", "result": 4.83},
      {"measurement": "PRISMA enrichment of interactor (log2)", "setting": "ZNF346, Q9UL40", "result": 4.71}
    ]},
    {"binder": "MRVWIRAPRCRGGPG", "note": "[RAB12]", "values": [
      {"measurement": "PRISMA enrichment of interactor (log2)", "setting": "RAB21, Q9UL25", "result": 4.36}
    ]},
    {"binder": "LNAMSLGPRRARSAP", "note": "[RNF10]", "values": [
      {"measurement": "PRISMA enrichment of interactor (log2)", "setting": "PHF3, Q92576", "result": 4.49},
      {"measurement": "PRISMA enrichment of interactor (log2)", "setting": "RBMS1, P29558", "result": 6.1},
      {"measurement": "PRISMA enrichment of interactor (log2)", "setting": "SOAT1, P35610", "result": 4.31},
      {"measurement": "PRISMA enrichment of interactor (log2)", "setting": "SRI, P30626", "result": 4.68}
    ]},
    {"binder": "LYKERYSSVKEAWMK", "note": "[TRDN-AS1_2]", "values": [
      {"measurement": "PRISMA enrichment of interactor (log2)", "setting": "GLYATL1B, A0A0U1RQE8", "result": 4.79},
      {"measurement": "PRISMA enrichment of interactor (log2)", "setting": "HMGA2, P52926", "result": 5.13},
      {"measurement": "PRISMA enrichment of interactor (log2)", "setting": "TACO1, Q9BSH4", "result": 4.23}
    ]},
    {"binder": "TFRLLTLLPTIEKRR", "note": "[CTD-2366F13.1]", "values": [
      {"measurement": "PRISMA enrichment of interactor (log2)", "setting": "NDUFA6, P56556", "result": 6.16},
      {"measurement": "PRISMA enrichment of interactor (log2)", "setting": "NDUFB9, Q9Y6M9", "result": 4.61},
      {"measurement": "PRISMA enrichment of interactor (log2)", "setting": "PDCL3, Q9H2J4", "result": 8.45},
      {"measurement": "PRISMA enrichment of interactor (log2)", "setting": "PHAX, Q9H814", "result": 4.89},
      {"measurement": "PRISMA enrichment of interactor (log2)", "setting": "SDE2, Q6IQ49", "result": 5.46},
      {"measurement": "PRISMA enrichment of interactor (log2)", "setting": "SYCP2, Q9BX26", "result": 8.17}
    ]},
    {"binder": "MAGRLWRRSGEQKKG", "note": "[RP11-644F5.11]", "values": [
      {"measurement": "PRISMA enrichment of interactor (log2)", "setting": "HSPH1, Q92598", "result": 4.77}
    ]},
    {"binder": "TPEELFHPLGADSQ", "note": "[GLUT1_WT_3]", "values": [
      {"measurement": "PRISMA enrichment of interactor (log2)", "setting": "LIMD2, Q9BT23", "result": 3.7}
    ]},
    {"binder": "MERKVRKLKSRERQW", "note": "[RP11-140K17.3]", "values": [
      {"measurement": "PRISMA enrichment of interactor (log2)", "setting": "RBM25, P49756", "result": 5.77},
      {"measurement": "PRISMA enrichment of interactor (log2)", "setting": "TUBG1, P23258", "result": 6.94}
    ]},
    {"binder": "HGKIKVLEWFKYVLG", "note": "[CRNDE]", "values": [
      {"measurement": "PRISMA enrichment of interactor (log2)", "setting": "STAT1, P42224", "result": 5.3}
    ]},
    {"binder": "FLLVRRTRAAAYAFA", "values": [
      {"measurement": "PRISMA enrichment of interactor (log2)", "setting": "GPC1, P35052", "result": 4.26},
      {"measurement": "PRISMA enrichment of interactor (log2)", "setting": "INTS2, Q9H0H0", "result": 4.76},
      {"measurement": "PRISMA enrichment of interactor (log2)", "setting": "ISYNA1, Q9NPH2", "result": 4.53},
      {"measurement": "PRISMA enrichment of interactor (log2)", "setting": "MTCH2, Q9Y6C9", "result": 6.75},
      {"measurement": "PRISMA enrichment of interactor (log2)", "setting": "TRMT112, Q9UI30", "result": 6.88}
    ]},
    {"binder": "SRWLCLSAAWSFVQV", "note": "[PVT1]", "values": [
      {"measurement": "PRISMA enrichment of interactor (log2)", "setting": "UBE2I, P63279", "result": 5.81},
      {"measurement": "PRISMA enrichment of interactor (log2)", "setting": "UQCRQ, O14949", "result": 5.4}
    ]}
  ]
}
